# Patent publication US20200354457A1
# Residue numbers refer to the chain shown, from its start. These are yes or no findings as the source states them, for the method shown. Some results given as binding are weak or reduced against the parent protein; the word gives no strength.
# B1: LAG3 17D7 aVH domain (VHH)
# VHH: EVQLVESGGGLVQPGGSLRLSCAASGFNIKDTCIGWVRRAPGKGTELVAEICTDIGYTRYADSVKGRFTISADTSKNTAYLQMNSLRAEDTAVYYCAAGEGSSGFHYWGQGTTVTVSS
# B2: LAG3 19G3 aVH domain (VHH)
# VHH: B1 VHH with D31Y, T32Q, T53S, D54Y, I55D, G99E, G101S, S102V, S103E, H106I
# B3: LAG3 P11E2 aVH domain (VHH)
# VHH: B1 VHH with T53D, A98S, G99Q, G101H, S102Q, S103W, G104S, H106K
# B4: LAG3 9B4 aVH domain (VHH)
# VHH: B1 VHH with T53Q, G99V, G101V, S102A, S103E, G104Y, H106E
# B5: LAG3 21B11 aVH domain (VHH)
# VHH: B1 VHH with T53Q, G99D, G101S, S102V, S103D, G104N, H106K
# B6: LAG3 P11E9 aVH domain (VHH)
# VHH: B1 VHH with T53H, G99E, G101H, S102V, S103A, G104S, H106E
# B7: LAG3 P10C3 aVH domain (VHH)
# VHH: B1 VHH with I55A, G99S, G101S, S102P, H106R
# B8: SEQ ID NO 21 (VHH)
# VHH: EVQLVESGGGLVQPGGSLRLSCAASGFNIKDTYIGWVRRAPGKGEELVARIYPTNGYTRYADSVKGRFTISADTSKNTAYLQMNSLRAEDTAVYYCAKYVRYFDYWGQGTLVTVSS
# B9: SEQ ID NO 23 (VHH)
# VHH: EVQLVESGGGLVQPGGSLRLSCAASGFNIKDTYIGWVRRAPGKGEELVARIYPTNGYTRYADSVKGRFTISADTSKNTAYLQMNSLRAEDTAVYYCAKYYPRTYLDFDYWGQGTLVTVSS
# B10: SEQ ID NO 27 (VHH)
# VHH: EVQLVESGGGLVQPGGSLRLSCAASGFNIKDTYIGWVRRAPGKGEELVARIYPTNGYTRYADSVKGRFTISADTSKNTAYLQMNSLRAEDTAVYYCAKRSHYSYFDYWGQGTLVTVSS
# Molecular target: soluble human Lag3-IgG1-Fc with biotinylated C-terminal Avi-tag (human)
# Assay: ELISA, biotinylated LAG3 antigen on neutravidin plates, bacterial supernatants, anti-Flag/HRP
row,binding,Binder
1,binds,B1
2,binds,B2
3,binds,B3
4,binds,B4
5,binds,B5
6,binds,B6
7,binds,B7

# Molecular target: biotinylated DR5-Fc-avi (extracellular domain of Death receptor 5, amino acids 1 to 152, fused to human IgG1 Fc with C-terminal avi-tag)
# Assay: ELISA, biotinylated DR5 antigen on neutravidin plates, bacterial supernatants, anti-Flag/HRP
row,Binder,binding
1,B8,binds
2,B9,binds
3,B10,binds
